Results are given in words; binding and its absence hold for the method and conditions named. Binding seen in cells or lysates may run through a third protein. A yes stands for co-enrichment or nearness to the bait. Other partners may have been found.
B1: ARIH2 (mouse, endogenous) (enzyme, UniProt Q9Z1K6 1-492)
chain: MSVDMNSQGSDSNEEDYDPNCEEEEEEEEDPGDIEDYYVGVASDVEQQGADAFDPEEYQFTCLTYKESEGALHEHMTSLASVLKVSHSVAKLILVNFHWQVSEILDRYRSNSAQLLVEARVQPNPSKHVPTAHPPHHCAVCMQFVRKENLLSLACQHQFCRSCWEQHCSVLVKDGVGVGISCMAQDCPLRTPEDFVFPLLPNEELRDKYRRYLFRDYVESHFQLQLCPGADCPMVIRVQEPRARRVQCNRCSEVFCFKCRQMYHAPTDCATIRKWLTKCADDSETANYISAHTKDCPKCNICIEKNGGCNHMQCSKCKHDFCWMCLGDWKTHGSEYYECSRYKENPDIVNQSQQAQAREALKKYLFYFERWENHNKSLQLEAQTYERIHEKIQERVMNNLGTWIDWQYLQNAAKLLAKCRYTLQYTYPYAYYMESGPRKKLFEYQQAQLEAEIENLSWKVERADSYDRGDLENQMHIAEQRRRTLLKDFHDT
B2: TRIM3 (enzyme, UniProt Q9R1R2 1-744)
chain: MAKREDSPGPEVQPMDKQFLVCSICLDRYRCPKVLPCLHTFCERCLQNYIPPQSLTLSCPVCRQTSILPEQGVSALQNNFFISSLMEAMQQAPEGAHDPEDPHPLSAVAGRPLSCPNHEGKTMEFYCEACETAMCGECRAGEHREHGTVLLRDVVEQHKAALQRQLEAVRGRLPQLSAAIALVGGISQQLQERKAEALAQISAAFEDLEQALQQRKQALVSDLESICGAKQKVLQTQLDTLRQGQEHIGSSCSFAEQALRLGSAPEVLLVRKHMRERLAALAAQAFPERPHENAQLELVLEVDGLRRSVLNLGALLTTSATAHETVATGEGLRQALVGQPASLTVTTKDKDGRLVRTGSAELCAEITGPDGVRLAVPVVDHKNGTYELVYTARTEGDLLLSVLLYGQPVRGSPFRVRALRPGDLPPSPDDVKRRVKSPGGPGSHVRQKAVRRPSSMYSTGGKRKDNPIEDELVFRVGSRGREKGEFTNLQGVSAASSGRIVVADSNNQCIQVFSNEGQFKFRFGVRGRSPGQLQRPTGVAVDTNGDIIVADYDNRWVSIFSPEGKFKTKIGAGRLMGPKGVAVDRNGHIIVVDNKSCCVFTFQPNGKLVGRFGGRGATDRHFAGPHFVAVNNKNEIVVTDFHNHSVKVYSADGEFLFKFGSHGEGNGQFNAPTGVAVDSNGNIIVADWGNSRIQVFDSSGSFLSYINTSAEPLYGPQGLALTSDGHVVVADAGNHCFKAYRYLQ
B3: TRAF7 (enzyme, UniProt Q922B6 1-594)
chain: MPPINTPRRSDSAISVRSLHSESSMSLRSTFSLPEEEEEPEPLVFAEQPSVKLCCQLCCSVFKDPVITTCGHTFCRRCALKSEKCPVDNAKLTVVVNNIAVAEQIGELFIHCRHGCHAAGTGKPGVFEVDPRGCPFTIKLSARKDHESSCDYRPVRCPNNPSCPPLLKMNLEAHLKECEHIKCPHSKYGCTFIGNQDTYETHLETCRFEGLKEFLQQTDDRFHEMHVALAQKDQEIAFLRSMLGKLSEKIDQLEKSLELKFDVLDENQSKLSEDLMEFRRDASMLNDELSHINARLNMGILGSYDPQQIFKCKGTFVGHQGPVWCLCVYSMGDLLFSGSSDKTIKVWDTCTTYKCQKTLEGHDGIVLALCIQGCKLYSGSADCTIIVWDIQNLQKVNTIRAHDNPVCTLVSSHNMLFSGSLKAIKVWDIVGTELKLKKELTGLNHWVRALVAAQSYLYSGSYQTIKIWDIRTLDCIHVLQTSGGSVYSIAVTNHHIVCGTYENLIHVWDIESKEQVRTLTGHVGTVYALAVISTPDQTKVFSASYDRSLRVWSMDNMICTQTLLRHQGSVTALAVSRGRLFSGAVDSTVKVWTC

Target: TsUBE2L3-HA (Trichinella spiralis)
Assay: affinity purification with mass spectrometry; anti-HA affinity matrix on pooled cytosolic and nuclear extracts of transgenic C2C12 myotubes after 24 h DOX induction; HA peptide elution; SDS-PAGE, silver staining, LC/MS/MS; two experiments merged

Binder | binding
B1 | binds
B2 | binds
B3 | binds
